# In PubChem BioAssay AID445 (National Center for Advancing Translational Sciences (NCATS), 2006):
# This is one part of the list. The main result of the screen is listed elsewhere. These columns were measured beside it and carry no call. Compounds called inactive in the main read-out are mostly missing here. Potencies come from curve fits of mixed quality, noted in brackets.
# Assay: IkB Signaling
# Conditions: ABC-DLBCL IkBa-CBG/CBR dual luciferase ratio (green luciferase fused to IkBa over red control in OCI-Ly3 lymphoma cells), 4 h
# How it was run: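 In this assay, an IκBα–CBG68 fusion accumulates when IKK-driven degradation is blocked; native CBR normalizes for cell number. OCI-Ly3 cells were treated 4 h with compound and doxycycline, then green and red light read after Chroma-Glo addition.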
# [1] = measured here: control luc red channel unless noted
smiles,measurement,setting,value
CC(=O)Nc1cccc(Nc2nc3ccccc3n3c(C)nnc23)c1,AC50,[1],"3.16 µM [falling, full curve]"
O=C(CN1CCCN(Cc2ccc(F)cc2)S1(=O)=O)Nc1ccc2c(c1)OCCO2,AC50,[1],"39.8 µM [falling, partial curve, poor fit]"
CCCN(CCC)CCCNC(=O)Cn1ncc2c3ccccc3n(Cc3ccccc3F)c2c1=O,AC50,[1],"12.6 µM [falling, partial curve]"
CCc1nn(CCCC(=O)NCc2ccc(C)cc2)c(=O)c2cc3occc3n12,AC50,[1],"1.58 µM [falling, full curve, poor fit]"
CCOc1ccccc1N(C)C(=O)Cn1nc(Cc2ccncc2)c2ccccc2c1=O,AC50,[1],"0.0501 µM [rising, full curve, poor fit]"
CC(C)(C)c1ccc(Oc2nc3ccccn3c(=O)c2/C=C(\C#N)c2nc3ccccc3s2)cc1,AC50,[1],"7.94 µM [falling, single point]"
COc1ccc2c(c1)CCc1sc(NC(=O)c3ccc(Br)cc3)nc1-2,AC50,[1],"20 µM [falling, partial curve, poor fit]"
CN(C)c1oc(-c2ccc(COc3ccccc3)o2)nc1C#N,AC50,[1],"0.316 µM [rising, full curve]"
COc1cc(NC(=O)Cn2ccn(-c3cc(C)cc(C)c3)c(=O)c2=O)cc(OC)c1,AC50,[1],"20 µM [falling, single point]"
CCSc1nnc(NC(=O)c2ccco2)s1,AC50,[1],"12.6 µM [falling, partial curve]"
Cc1ccc(NC(=O)C(=O)NCC(c2ccc3c(c2)OCO3)N2CCN(C)CC2)c(C)c1 (stereo unspecified),AC50,[1],"31.6 µM [falling, single point]"
CN(C)c1ccc(-c2nc(-c3cccs3)c(-c3cccs3)[nH]2)cc1,AC50,[1],"25.1 µM [falling, partial curve]"
CCCn1c(SCC(O)c2ccccc2)nc2ccccc21 (stereo unspecified),AC50,[1],"39.8 µM [falling, single point]"
CCC(=O)n1nc(NCc2ccc(OC)c(OC)c2)nc1NCc1ccc(OC)c(OC)c1,AC50,[1],"10 µM [falling, partial curve]"
Cc1ccc(-c2noc(-c3ccccc3NC(=O)C3CC(=O)N(c4ccc(C)cc4)C3)n2)cc1 (stereo unspecified),AC50,[1],"12.6 µM [falling, partial curve]"
COc1cc2nc(Nc3cccc(C)c3)nc(N)c2cc1OC,AC50,[1],"25.1 µM [falling, partial curve, poor fit]"
Cc1ccc(C(=O)NCC(c2ccco2)S(=O)(=O)c2cccs2)cc1C (stereo unspecified),AC50,[1],"6.31 µM [falling, partial curve]"
CCCCN(Cc1cc2ccccc2[nH]c1=O)C(=O)c1cccc(Cl)c1,AC50,[1],"39.8 µM [falling, single point]"
O=C(Oc1ccc(F)cc1)c1nc(SCc2ccc(F)cc2)ncc1Cl,AC50,[1],"25.1 µM [falling, single point]"
COc1ccc(NC(=O)CCS(=O)(=O)c2ccc3c(c2)oc(=O)n3C)cc1OC,AC50,[1],"1.26 µM [rising, full curve]"
CN(C)c1ccc2c(c1)OC(N)=C(C#N)C2c1cccc(F)c1 (stereo unspecified),AC50,[1],"39.8 µM [falling, single point]"
COc1ccc(OC)c(NC(=O)c2cnc(N3CCCCC3)c3ccccc23)c1,AC50,[1],"0.501 µM [rising, full curve]"
Cc1cccc(C(c2sc3nc(-c4ccco4)nn3c2O)N2CCN(c3ccccc3F)CC2)c1 (stereo unspecified),AC50,[1],"15.8 µM [falling, single point]"
O=C1C2C3C=CC(C3)C2C(=O)N1Cc1ccccc1 (stereo unspecified),AC50,[1],"7.94 µM [falling, partial curve]"
Cc1ccc(C)c(CN2C(=O)c3ccccc3S(=O)c3ccc(C(=O)N(C)Cc4ccccc4)cc32)c1 (stereo unspecified),AC50,[1],"0.794 µM [falling, single point]"
Cc1ccc(-n2ncc(C(=O)N3CCC(c4ccccc4)C3)c2C2CCN(C(=O)OC(C)(C)C)CC2)cc1 (stereo unspecified),AC50,[1],"12.6 µM [falling, partial curve]"
CCCCOc1ccc(CNC(=O)c2ccc(NC(=O)N3CCSc4ncccc43)cc2)cc1,AC50,[1],"10 µM [falling, partial curve]"
O=C(Nc1nc(-c2ccc(Br)cc2)ns1)c1ccccc1F,AC50,[1],"0.126 µM [rising, full curve]"
Cc1cccc(N2CCN(C(=O)C3CCN(S(=O)(=O)c4ccc5c(c4)oc(=O)n5C)CC3)CC2)c1C,AC50,[1],"25.1 µM [falling, partial curve]"
COC(=O)CCN(C(=O)c1c(C)oc2ncnc(N3CCOCC3)c12)c1ccccc1,AC50,[1],"1.26 µM [rising, full curve, poor fit]"
CCC(C)[C@@H](NC(=O)OC(C)(C)C)c1nnc(S(=O)(=O)Cc2cccc(C)c2)o1 (stereo partly specified),AC50,measured here: IkB-luc green channel,"6.31 µM [rising, single point]"
same,AC50,measured here: control luc red channel,"12.6 µM [falling, partial curve]"
Cc1coc2cc3oc(=O)c(CC(=O)NCc4ccccc4)c(C)c3cc12,AC50,[1],"0.2 µM [falling, partial curve]"
CC(C)(C)c1ccc(S(=O)(=O)Nc2ccc(O)c(Sc3nc4ccccc4s3)c2)cc1,AC50,[1],"31.6 µM [falling, single point]"
CC(=O)N1CCCc2cc(S(=O)(=O)N3CCCC(C(=O)Nc4ccc(C)c(C)c4)C3)ccc21 (stereo unspecified),AC50,[1],"0.0398 µM [falling, single point]"
COc1cccc(-c2cnc(NCc3ccccc3Cl)n2C)c1,AC50,[1],"12.6 µM [falling, partial curve]"
Cc1ccc(C(=O)Nc2ccc3oc(-c4cccnc4)nc3c2)c(Cl)c1,AC50,[1],"6.31 µM [falling, full curve]"
Cc1ccc(C)c(N2CCN(C(=O)c3cc4c(=O)n(Cc5cccs5)ccc4nc3C)CC2)c1,AC50,[1],"31.6 µM [falling, single point]"
Cc1ccc(NC(=O)/C(C#N)=C\c2ccc(Cl)cc2Cl)cc1C,AC50,[1],"25.1 µM [rising, partial curve]"
CCOC(=O)CN(C(=O)CSc1nnc2c(n1)[nH]c1ccc(OC)cc12)c1ccc(F)cc1,AC50,[1],"25.1 µM [falling, partial curve]"
CCOc1ccccc1NC(=O)N1CCN(S(=O)(=O)c2ccc3c(ccn3C)c2)CC1,AC50,[1],"15.8 µM [falling, single point]"

# As a short view, part of the list above:
smiles,measurement,setting,value
CN(C)c1ccc2c(c1)OC(N)=C(C#N)C2c1cccc(F)c1 (stereo unspecified),AC50,[1],"39.8 µM [falling, single point]"
COc1ccc(OC)c(NC(=O)c2cnc(N3CCCCC3)c3ccccc23)c1,AC50,[1],"0.501 µM [rising, full curve]"
Cc1cccc(C(c2sc3nc(-c4ccco4)nn3c2O)N2CCN(c3ccccc3F)CC2)c1 (stereo unspecified),AC50,[1],"15.8 µM [falling, single point]"
